Values of other authors, collected in patent US20100248255A1, “NOVEL PEPTIDES” (KYOWA HAKKO KOGYO CO., LTD, priority 2005, published 2010).
For at least one compound, name, drawing or mass did not settle the structure. No end group written: not given here.

Key:
Conditions in all cases: final concentration of 10 μmol/L; reported in WO02/010371; cited from earlier work
adrenal gland = test system: adrenal gland
uterus = test system: uterus
[1] = test system: vascular cells of the apoaequorin-expressing mice

RPPGFSPFR [bradykinin]
strong luminescence was observed: luminescence in the adrenal glands (adrenal gland) | luminescence in the uterus (uterus) | luminescence in the blood vessels [1]
